Measurements as given in publication PMC3737554.
These are yes or no findings as the source states them, for the method shown. For some of these results: Binding seen in cells or lysates may run through a third protein. Some binding calls cover weakened binding; strength is not graded here.

The chains behind the UniProt entries cited, without tags or fusion partners. Where a name states a change or a piece, a line headed by the entry shows the natural chain unless it says otherwise.
UniProt P23771: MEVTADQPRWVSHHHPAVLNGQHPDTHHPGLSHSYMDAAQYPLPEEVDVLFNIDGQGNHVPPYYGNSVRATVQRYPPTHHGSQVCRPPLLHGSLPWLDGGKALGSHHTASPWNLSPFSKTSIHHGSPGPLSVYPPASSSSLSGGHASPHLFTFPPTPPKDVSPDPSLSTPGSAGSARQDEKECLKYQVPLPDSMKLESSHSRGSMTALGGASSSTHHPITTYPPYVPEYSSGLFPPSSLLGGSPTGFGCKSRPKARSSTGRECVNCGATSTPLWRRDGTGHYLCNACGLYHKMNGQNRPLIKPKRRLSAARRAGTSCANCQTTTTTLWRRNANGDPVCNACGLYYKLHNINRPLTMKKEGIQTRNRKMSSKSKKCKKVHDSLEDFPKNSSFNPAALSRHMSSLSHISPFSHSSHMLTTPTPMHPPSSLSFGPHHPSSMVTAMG
UniProt O94953: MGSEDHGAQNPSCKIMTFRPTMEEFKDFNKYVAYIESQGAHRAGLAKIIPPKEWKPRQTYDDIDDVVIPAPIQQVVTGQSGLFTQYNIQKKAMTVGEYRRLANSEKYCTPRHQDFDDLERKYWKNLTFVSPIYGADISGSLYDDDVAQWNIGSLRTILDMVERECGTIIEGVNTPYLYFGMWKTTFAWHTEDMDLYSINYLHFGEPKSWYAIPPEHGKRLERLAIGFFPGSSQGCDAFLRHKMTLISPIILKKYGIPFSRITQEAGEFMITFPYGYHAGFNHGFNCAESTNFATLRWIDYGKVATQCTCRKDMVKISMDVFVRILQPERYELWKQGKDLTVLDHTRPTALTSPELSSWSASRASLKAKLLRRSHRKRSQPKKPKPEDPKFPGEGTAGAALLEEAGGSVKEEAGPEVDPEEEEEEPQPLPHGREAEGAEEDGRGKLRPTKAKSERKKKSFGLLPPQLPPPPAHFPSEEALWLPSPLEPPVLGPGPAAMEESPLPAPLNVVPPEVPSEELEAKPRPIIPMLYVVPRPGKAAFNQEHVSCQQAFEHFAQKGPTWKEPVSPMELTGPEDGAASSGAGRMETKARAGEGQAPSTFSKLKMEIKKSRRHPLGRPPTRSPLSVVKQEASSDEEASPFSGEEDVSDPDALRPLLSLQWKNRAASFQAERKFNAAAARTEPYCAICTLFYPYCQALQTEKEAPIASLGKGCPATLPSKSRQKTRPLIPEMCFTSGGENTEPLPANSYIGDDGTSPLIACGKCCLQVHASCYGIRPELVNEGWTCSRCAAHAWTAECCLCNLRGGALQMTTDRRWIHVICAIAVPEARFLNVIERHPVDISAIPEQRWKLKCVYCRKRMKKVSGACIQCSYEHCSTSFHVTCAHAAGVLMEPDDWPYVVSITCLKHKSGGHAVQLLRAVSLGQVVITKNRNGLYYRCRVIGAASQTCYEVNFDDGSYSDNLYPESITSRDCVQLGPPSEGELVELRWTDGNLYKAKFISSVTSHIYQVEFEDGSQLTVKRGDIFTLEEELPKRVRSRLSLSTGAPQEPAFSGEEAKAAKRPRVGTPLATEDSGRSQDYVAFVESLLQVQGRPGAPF
UniProt P03372: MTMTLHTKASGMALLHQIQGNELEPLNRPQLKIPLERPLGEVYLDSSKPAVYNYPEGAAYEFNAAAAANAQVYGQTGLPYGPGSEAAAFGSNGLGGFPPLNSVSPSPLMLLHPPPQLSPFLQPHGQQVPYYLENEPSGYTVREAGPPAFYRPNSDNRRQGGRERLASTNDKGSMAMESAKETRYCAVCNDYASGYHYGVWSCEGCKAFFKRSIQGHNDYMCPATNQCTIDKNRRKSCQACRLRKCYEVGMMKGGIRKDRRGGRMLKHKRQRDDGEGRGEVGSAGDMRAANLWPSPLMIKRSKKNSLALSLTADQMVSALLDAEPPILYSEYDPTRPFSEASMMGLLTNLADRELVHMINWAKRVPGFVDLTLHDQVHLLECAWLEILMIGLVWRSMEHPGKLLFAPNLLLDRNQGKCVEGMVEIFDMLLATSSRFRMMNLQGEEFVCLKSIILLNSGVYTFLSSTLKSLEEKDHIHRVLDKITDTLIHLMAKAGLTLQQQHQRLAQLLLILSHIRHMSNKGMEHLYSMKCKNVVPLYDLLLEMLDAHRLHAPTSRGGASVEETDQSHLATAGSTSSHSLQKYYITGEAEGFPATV

What was measured:
[1] = target: T1, FOXA1, endogenous (human (endogenous in MCF-7)) (UniProt P55317); experiment: co-IP; MCF-7 cells transiently transfected with pCMV-HA-KDM4B for 48 h; IP with anti-FOXA1 antibody, western blot with a KDM4B antibody
T1 sequence: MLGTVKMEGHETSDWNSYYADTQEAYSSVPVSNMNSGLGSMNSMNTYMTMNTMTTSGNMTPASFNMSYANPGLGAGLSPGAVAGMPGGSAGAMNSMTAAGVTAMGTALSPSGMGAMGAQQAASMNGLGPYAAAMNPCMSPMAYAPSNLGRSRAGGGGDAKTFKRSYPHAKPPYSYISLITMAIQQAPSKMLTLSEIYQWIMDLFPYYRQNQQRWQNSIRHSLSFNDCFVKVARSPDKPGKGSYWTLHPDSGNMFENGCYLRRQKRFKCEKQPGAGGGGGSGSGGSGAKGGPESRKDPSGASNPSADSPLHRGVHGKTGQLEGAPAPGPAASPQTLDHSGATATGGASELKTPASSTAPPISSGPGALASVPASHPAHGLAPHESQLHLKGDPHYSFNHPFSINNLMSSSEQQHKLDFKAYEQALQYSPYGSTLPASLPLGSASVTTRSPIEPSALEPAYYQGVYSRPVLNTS

[2] = target: GATA-3, endogenous (human (endogenous in T47D)) (UniProt P23771); experiment: co-IP; endogenous proteins; T47D cells grown in serum-containing media; IP with antibodies to KDM4B, GATA-3 or isotype control, western blot with reciprocal antibodies
[3] = target: GATA-3, endogenous (human (endogenous in T47D)) (UniProt P23771); experiment: re-ChIP; T47D cells, steroid-depleted media, with or without 10 nM E2 for 45 min, formaldehyde-fixed chromatin; first ChIP with anti-GATA-3, eluted in 10 mM DTT, second ChIP with anti-KDM4B or isotype control; quantitative PCR of Pro A, Enh1 and Enh2 of the ER gene
[4] = target: KDM4B (histone H3 lysine 9 tri-/di-methyl demethylase), endogenous (human (endogenous in MCF-7 and T47D)) (UniProt O94953); experiment: co-IP; endogenous proteins; T47D cells grown in serum-containing media; IP with antibodies to KDM4B, GATA-3 or isotype control, western blot with reciprocal antibodies
[5] = target: estrogen receptor (ER), expressed from pCMV-ER in HEK293T cells (UniProt P03372); experiment: co-IP; HEK293T cells in serum-containing or steroid-depleted media with 10 nM E2, transfected 48 h with vectors for ER and wild-type or demethylase-dead KDM4B; IP as for the endogenous proteins, western blot
[6] = target: KDM4B (histone H3 lysine 9 tri-/di-methyl demethylase), endogenous (human (endogenous in MCF-7 and T47D)) (UniProt O94953); experiment: co-IP; endogenous proteins; MCF-7 cells grown in serum-containing media; IP with anti-ER, anti-KDM4B or control antibodies, western blot

HA-KDM4B, wild type, expressed in MCF-7 cells (from UniProt O94953 1-1096) (enzyme)
binding [1]: binds

KDM4B (histone H3 lysine 9 tri-/di-methyl demethylase), endogenous (from UniProt O94953 1-1096) (enzyme)
binding [2]: binds | binding [3]: binds

GATA-3, endogenous (from UniProt P23771 1-443)
binding [4]: binds

HA-KDM4B, wild type, expressed in HEK293T cells (from UniProt O94953 1-1096) (enzyme)
binding [5]: binds

HA-KDM4B H189G/E191Q (demethylase-dead), expressed in HEK293T cells (from UniProt O94953 1-1096) (enzyme)
binding [5]: binds

B1: FOXA1, endogenous (protein, UniProt P55317 1-472)
chain: MLGTVKMEGHETSDWNSYYADTQEAYSSVPVSNMNSGLGSMNSMNTYMTMNTMTTSGNMTPASFNMSYANPGLGAGLSPGAVAGMPGGSAGAMNSMTAAGVTAMGTALSPSGMGAMGAQQAASMNGLGPYAAAMNPCMSPMAYAPSNLGRSRAGGGGDAKTFKRSYPHAKPPYSYISLITMAIQQAPSKMLTLSEIYQWIMDLFPYYRQNQQRWQNSIRHSLSFNDCFVKVARSPDKPGKGSYWTLHPDSGNMFENGCYLRRQKRFKCEKQPGAGGGGGSGSGGSGAKGGPESRKDPSGASNPSADSPLHRGVHGKTGQLEGAPAPGPAASPQTLDHSGATATGGASELKTPASSTAPPISSGPGALASVPASHPAHGLAPHESQLHLKGDPHYSFNHPFSINNLMSSSEQQHKLDFKAYEQALQYSPYGSTLPASLPLGSASVTTRSPIEPSALEPAYYQGVYSRPVLNTS
binding [6]: binds
